Measured values published in the supplement of paper PMC10849652.
The list shows a part of the results.

Chains of the proteins cited; added tags and fusions are not shown. Lines headed by an entry give the natural chain unless they say otherwise; changes in a name come on top.
UniProt Q5BKY9: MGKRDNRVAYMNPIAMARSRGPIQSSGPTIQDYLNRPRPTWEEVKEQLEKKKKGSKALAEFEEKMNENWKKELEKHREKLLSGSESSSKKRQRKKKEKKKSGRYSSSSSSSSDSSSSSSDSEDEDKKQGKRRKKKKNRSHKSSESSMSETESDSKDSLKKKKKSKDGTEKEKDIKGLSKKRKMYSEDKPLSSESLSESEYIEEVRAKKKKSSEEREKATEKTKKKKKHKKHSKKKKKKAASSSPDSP
UniProt Q9BS26: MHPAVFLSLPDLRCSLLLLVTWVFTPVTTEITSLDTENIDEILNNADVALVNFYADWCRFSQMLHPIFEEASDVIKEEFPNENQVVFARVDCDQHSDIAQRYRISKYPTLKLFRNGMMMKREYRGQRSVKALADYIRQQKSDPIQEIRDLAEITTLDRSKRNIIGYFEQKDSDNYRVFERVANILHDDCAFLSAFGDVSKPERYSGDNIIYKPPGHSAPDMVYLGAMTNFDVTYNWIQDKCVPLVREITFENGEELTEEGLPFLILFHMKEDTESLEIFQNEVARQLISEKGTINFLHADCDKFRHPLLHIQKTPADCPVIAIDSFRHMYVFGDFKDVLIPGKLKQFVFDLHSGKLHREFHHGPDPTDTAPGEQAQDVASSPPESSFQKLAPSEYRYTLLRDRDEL
UniProt Q96A26: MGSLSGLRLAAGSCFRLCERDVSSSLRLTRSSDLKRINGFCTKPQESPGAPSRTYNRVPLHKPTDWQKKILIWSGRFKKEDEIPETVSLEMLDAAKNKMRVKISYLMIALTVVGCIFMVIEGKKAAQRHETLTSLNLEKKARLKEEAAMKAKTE
UniProt O95571: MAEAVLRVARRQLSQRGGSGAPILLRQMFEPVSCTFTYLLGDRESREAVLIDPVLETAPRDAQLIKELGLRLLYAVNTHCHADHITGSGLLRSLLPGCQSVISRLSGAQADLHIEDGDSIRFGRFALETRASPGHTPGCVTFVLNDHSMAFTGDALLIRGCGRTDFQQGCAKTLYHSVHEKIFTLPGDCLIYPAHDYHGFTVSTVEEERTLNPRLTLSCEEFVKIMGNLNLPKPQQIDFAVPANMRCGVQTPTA
UniProt Q9Y3B2, whole entry, looked up: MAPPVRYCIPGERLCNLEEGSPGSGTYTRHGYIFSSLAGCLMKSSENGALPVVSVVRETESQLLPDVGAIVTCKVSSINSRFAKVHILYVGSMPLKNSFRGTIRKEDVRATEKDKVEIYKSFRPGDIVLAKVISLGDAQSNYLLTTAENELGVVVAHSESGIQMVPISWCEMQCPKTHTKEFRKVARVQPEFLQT
UniProt Q96PL5: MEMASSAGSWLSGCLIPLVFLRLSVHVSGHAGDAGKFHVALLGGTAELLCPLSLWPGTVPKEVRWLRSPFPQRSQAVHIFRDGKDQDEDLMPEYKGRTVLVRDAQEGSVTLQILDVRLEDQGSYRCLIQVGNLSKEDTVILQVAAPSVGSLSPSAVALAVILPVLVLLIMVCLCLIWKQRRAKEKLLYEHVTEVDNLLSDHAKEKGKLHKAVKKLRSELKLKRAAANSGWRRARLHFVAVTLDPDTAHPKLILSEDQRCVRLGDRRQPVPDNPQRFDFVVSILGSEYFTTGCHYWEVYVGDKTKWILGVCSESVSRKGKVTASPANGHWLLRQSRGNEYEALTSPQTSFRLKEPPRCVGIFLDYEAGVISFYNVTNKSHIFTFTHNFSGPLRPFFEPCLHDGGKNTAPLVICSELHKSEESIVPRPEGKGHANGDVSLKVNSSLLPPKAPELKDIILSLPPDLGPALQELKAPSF
UniProt P38117: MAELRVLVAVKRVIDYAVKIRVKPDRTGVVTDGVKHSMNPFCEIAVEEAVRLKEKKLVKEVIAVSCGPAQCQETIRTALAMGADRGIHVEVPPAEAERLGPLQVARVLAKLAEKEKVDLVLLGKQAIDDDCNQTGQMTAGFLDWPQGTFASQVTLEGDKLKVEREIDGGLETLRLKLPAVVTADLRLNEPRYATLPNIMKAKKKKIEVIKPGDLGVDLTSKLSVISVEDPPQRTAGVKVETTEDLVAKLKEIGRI
UniProt O43909: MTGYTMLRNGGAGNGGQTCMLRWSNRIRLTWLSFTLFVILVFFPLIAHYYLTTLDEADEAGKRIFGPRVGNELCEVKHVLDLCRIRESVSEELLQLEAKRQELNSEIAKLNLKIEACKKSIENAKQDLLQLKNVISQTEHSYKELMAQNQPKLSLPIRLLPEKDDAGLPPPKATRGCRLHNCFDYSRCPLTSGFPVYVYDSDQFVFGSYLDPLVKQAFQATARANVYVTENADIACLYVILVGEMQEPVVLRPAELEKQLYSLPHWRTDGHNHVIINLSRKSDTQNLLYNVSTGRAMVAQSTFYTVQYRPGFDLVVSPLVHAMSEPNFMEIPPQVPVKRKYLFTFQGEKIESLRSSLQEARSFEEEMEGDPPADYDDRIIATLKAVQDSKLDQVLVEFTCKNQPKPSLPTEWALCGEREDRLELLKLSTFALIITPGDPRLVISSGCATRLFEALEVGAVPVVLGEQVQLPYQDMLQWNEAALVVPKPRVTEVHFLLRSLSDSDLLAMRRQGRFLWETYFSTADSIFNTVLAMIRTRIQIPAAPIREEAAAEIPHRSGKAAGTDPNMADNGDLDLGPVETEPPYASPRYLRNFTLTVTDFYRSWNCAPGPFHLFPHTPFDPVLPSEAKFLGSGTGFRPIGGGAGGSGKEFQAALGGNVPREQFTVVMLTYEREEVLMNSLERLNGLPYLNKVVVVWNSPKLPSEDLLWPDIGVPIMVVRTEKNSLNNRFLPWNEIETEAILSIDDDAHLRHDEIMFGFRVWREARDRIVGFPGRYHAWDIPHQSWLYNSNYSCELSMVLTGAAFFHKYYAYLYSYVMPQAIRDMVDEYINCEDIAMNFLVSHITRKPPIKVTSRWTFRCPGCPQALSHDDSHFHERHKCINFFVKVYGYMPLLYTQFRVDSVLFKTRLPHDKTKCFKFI
UniProt Q9UKR5: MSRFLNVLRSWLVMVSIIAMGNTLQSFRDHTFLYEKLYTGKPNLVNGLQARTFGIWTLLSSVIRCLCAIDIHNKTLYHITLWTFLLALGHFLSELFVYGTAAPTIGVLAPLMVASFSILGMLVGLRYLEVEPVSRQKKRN
UniProt Q13216, whole entry, looked up: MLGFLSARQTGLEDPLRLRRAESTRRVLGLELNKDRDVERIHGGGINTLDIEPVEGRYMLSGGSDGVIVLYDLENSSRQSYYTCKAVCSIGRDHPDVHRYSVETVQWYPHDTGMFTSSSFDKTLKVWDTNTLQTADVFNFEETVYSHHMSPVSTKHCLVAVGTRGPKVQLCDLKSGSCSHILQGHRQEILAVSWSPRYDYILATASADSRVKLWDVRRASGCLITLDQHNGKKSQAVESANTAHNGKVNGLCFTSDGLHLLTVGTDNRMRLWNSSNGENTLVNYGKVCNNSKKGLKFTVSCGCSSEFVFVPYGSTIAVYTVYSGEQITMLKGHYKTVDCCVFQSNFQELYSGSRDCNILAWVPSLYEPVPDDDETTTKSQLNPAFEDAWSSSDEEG
UniProt Q8N128: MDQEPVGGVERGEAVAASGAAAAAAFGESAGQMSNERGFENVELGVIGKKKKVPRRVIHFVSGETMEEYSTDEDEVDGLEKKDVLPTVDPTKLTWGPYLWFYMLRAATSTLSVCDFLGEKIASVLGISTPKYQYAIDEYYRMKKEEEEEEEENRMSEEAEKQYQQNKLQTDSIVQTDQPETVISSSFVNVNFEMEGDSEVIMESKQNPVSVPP
UniProt O75477: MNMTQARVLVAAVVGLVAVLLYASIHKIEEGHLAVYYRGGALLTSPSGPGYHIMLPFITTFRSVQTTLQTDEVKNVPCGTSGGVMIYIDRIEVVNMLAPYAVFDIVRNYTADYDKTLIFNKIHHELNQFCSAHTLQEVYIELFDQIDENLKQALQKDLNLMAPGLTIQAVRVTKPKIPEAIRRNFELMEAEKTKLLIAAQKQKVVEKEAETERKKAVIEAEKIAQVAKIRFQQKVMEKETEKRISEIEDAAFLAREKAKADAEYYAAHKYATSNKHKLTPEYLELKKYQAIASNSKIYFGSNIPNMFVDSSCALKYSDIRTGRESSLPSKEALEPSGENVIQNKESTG
UniProt Q9NWS6: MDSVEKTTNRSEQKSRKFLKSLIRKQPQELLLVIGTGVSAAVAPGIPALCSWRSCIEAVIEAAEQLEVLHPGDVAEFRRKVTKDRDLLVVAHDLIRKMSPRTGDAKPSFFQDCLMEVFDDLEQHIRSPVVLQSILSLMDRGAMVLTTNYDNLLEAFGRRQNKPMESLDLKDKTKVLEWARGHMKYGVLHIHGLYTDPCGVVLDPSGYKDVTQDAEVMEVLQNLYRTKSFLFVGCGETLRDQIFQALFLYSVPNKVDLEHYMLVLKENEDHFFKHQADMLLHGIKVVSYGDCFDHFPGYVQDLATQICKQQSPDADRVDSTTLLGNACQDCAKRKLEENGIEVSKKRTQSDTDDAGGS
UniProt Q96GK7: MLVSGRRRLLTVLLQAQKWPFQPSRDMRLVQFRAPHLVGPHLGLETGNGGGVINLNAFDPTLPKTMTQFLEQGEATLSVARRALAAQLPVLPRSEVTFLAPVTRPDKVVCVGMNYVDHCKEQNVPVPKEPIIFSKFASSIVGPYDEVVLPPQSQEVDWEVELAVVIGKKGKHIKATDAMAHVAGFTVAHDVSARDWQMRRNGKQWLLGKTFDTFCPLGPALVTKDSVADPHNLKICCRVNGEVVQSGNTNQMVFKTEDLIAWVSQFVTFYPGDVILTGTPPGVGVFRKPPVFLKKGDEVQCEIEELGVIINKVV
UniProt Q7L775: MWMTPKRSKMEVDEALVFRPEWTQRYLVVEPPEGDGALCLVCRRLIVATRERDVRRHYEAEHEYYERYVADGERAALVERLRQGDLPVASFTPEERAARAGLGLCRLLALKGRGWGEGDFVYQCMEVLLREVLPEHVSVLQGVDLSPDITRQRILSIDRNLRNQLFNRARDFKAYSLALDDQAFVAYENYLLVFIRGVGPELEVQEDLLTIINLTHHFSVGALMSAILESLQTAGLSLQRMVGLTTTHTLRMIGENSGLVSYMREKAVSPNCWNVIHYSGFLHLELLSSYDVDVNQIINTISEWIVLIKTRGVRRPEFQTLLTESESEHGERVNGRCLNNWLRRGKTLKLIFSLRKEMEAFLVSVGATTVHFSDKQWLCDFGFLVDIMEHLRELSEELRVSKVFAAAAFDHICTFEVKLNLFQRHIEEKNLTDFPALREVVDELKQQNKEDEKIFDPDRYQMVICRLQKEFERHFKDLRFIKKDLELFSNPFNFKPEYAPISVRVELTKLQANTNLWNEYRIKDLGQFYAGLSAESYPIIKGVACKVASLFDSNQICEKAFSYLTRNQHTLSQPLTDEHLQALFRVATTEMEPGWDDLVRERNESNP
UniProt Q9UPT5: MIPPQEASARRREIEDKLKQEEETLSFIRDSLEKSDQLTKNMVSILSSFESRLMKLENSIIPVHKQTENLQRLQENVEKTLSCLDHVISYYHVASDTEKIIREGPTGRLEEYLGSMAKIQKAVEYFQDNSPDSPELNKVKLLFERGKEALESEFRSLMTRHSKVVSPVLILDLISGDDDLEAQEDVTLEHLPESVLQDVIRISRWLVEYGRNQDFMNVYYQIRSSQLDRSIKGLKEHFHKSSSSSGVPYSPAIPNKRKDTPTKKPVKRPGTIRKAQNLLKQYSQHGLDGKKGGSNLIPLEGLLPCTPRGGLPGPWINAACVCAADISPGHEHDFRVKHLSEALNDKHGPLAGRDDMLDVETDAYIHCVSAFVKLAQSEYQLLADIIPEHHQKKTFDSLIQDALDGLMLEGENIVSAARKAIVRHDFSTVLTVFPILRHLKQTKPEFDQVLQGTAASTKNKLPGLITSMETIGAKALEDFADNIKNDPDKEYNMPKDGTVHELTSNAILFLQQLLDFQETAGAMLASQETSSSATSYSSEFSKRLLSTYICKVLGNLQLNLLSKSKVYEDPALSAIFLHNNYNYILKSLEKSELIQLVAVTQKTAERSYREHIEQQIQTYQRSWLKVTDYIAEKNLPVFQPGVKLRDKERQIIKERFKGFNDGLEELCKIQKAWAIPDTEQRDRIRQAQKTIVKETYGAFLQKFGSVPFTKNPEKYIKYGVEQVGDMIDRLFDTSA
UniProt Q96HE7: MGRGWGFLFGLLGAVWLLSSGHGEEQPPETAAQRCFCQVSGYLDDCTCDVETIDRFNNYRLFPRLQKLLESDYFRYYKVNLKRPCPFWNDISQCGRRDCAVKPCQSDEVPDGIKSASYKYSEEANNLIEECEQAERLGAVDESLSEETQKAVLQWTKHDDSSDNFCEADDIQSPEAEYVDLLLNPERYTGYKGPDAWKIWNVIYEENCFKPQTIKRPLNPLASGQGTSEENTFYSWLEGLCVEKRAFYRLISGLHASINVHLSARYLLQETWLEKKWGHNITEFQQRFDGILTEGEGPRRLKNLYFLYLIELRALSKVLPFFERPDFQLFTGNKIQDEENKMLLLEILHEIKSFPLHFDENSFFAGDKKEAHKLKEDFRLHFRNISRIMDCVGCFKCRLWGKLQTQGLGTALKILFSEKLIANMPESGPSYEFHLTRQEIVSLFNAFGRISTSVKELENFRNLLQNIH

Tests used:
Assay in all cases: log2 fold change, soluble protein after heating vs DMSO (PISA); higher = thermal stabilisation; K562 cells, 10 uM, 30 min; active = over 0.2 and 3.5 SD of the protein, either way, in both replicates (recomputed)
[1] = compound: NC(=O)Nc1cc(-c2cccc(F)c2)sc1C(=O)N[C@H]1CCCNC1
How it was run: (§1)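 K562 cells at 2×10^6 cells/mL were given 10 μM compound for 30 min. Aliquots then went through 3 min of heating across 48°C-58°C, were pooled, and were extracted in PBS with 0.5% NP-40 at 4°C, and the supernatant after 21,000xg for 90 min was quantified by TMTpro 16plex LC-MS/MS with channel sums equalised. Thermal stability relative to control samples, from duplicates, is given as log2 fold change.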

[2] = compound: NC(=O)c1cnc(N[C@@H]2CCCC[C@@H]2N)nc1Nc1cccc(-n2nccn2)c1
How it was run: as §1

[3] = compound: NC1(c2ccc(-c3nc4ccn5c(=O)[nH]nc5c4cc3-c3ccccc3)cc2)CCC1
How it was run: as §1

[4] = compound: NCC(=O)Nc1ccc(-n2nc(C(F)(F)F)cc2-c2ccc3c(ccc4ccccc43)c2)cc1
How it was run: as §1

entinostat = compound: Nc1ccccc1NC(=O)c1ccc(CNC(=O)OCc2cccnc2)cc1 [entinostat]
How it was run: as §1

vorinostat = compound: O=C(CCCCCCC(=O)Nc1ccccc1)NO [vorinostat]
How it was run: as §1

citarinostat = compound: O=C(CCCCCCNC(=O)c1cnc(N(c2ccccc2)c2ccccc2Cl)nc1)NO [citarinostat]
How it was run: as §1

silmitasertib = compound: O=C(O)c1ccc2c(c1)nc(Nc1cccc(Cl)c1)c1ccncc12 [silmitasertib]
How it was run: as §1

[5] = compound: O=C1NC(=O)C(c2cnc3ccccn23)=C1c1cn2c3c(cc(F)cc13)CN(C(=O)N1CCCCC1)CC2
How it was run: as §1

[6] = compound: c1cc(OCCN2CCCCC2)cc(-c2n[nH]c3ccc(-c4nnc[nH]4)cc23)c1
How it was run: as §1

Measured: log2 fold change

FAM133B (UniProt Q5BKY9)
inactive: [1] -0.019 | [2] -0.03 | [3] 0.033 | [4] -0.101 | entinostat -0.025 | vorinostat -0.004 | citarinostat 0.04 | silmitasertib 0.026 | [5] 0.005 | [6] -0.033

ERP44 (UniProt Q9BS26)
inactive: [1] -0.015 | [2] -0.026 | [3] -0.015 | [4] -0.034 | entinostat -0.017 | vorinostat -0.014 | citarinostat -0.002 | silmitasertib 0.046 | [5] -0.024 | [6] -0.009

EXOC4 (UniProt Q96A65)
inactive: [1] 0.081 | [2] -0.216 | [3] -0.205 | [4] -0.051 | entinostat 0.078 | vorinostat 0.174 | citarinostat 0.16 | silmitasertib 0.091 | [5] 0.044 | [6] -0.094

FAM162A (UniProt Q96A26)
inactive: [1] 0.011 | [2] -0.11 | [3] -0.025 | [4] -0.046 | entinostat 0.023 | vorinostat -0.087 | citarinostat -0.127 | silmitasertib -0.023 | [5] 0.018 | [6] 0.004

ETHE1 (UniProt O95571)
inactive: [1] -0.04 | [2] -0.003 | [3] 0.053 | [4] 0.004 | entinostat -0.017 | vorinostat 0.017 | citarinostat -0.002 | silmitasertib 0.018 | [5] -0.05 | [6] -0.02

EXOSC1 (UniProt Q9Y3B2)
inactive: [1] 0.074 | [2] 0.034 | [3] 0.058 | [4] 0.026 | entinostat -0.035 | vorinostat 0 | citarinostat 0.007 | silmitasertib 0.033 | [5] 0.068 | [6] -0.047

ERMAP (UniProt Q96PL5)
inactive: [1] -0.103 | [2] -0.032 | [3] 0.01 | [4] -0.008 | entinostat -0.029 | vorinostat 0.05 | citarinostat -0.009 | silmitasertib 0.005 | [5] 0.014 | [6] -0.085

ETNPPL (UniProt Q8TBG4)
inactive: [1] -0.066 | [2] 0 | [3] 0.113 | [4] -0.102 | entinostat -0.008 | vorinostat 0.004 | citarinostat -0.136 | silmitasertib 0.167 | [5] -0.002 | [6] 0.333

ETFB (UniProt P38117)
inactive: [1] -0.027 | [2] -0.051 | [3] 0.011 | [4] -0.028 | entinostat -0.011 | vorinostat -0.023 | citarinostat -0.064 | silmitasertib -0.044 | [5] -0.025 | [6] -0.039

EXTL3 (UniProt O43909)
inactive: [1] -0.177 | [2] -0.247 | [3] -0.24 | [4] 0.058 | entinostat -0.004 | vorinostat 0.006 | citarinostat -0.028 | silmitasertib -0.063 | [5] 0.126 | [6] 0.046

EXT2 isoform 3 (UniProt Q93063)
inactive: [1] 0.006 | [2] -0.015 | [3] -0.125 | [4] 0.037 | entinostat -0.057 | vorinostat -0.008 | citarinostat 0.007 | silmitasertib 0.105 | [5] 0.094 | [6] -0.083

ERG28 (UniProt Q9UKR5)
inactive: [1] -0.056 | [2] -0.03 | [3] 0.124 | [4] -0.092 | entinostat 0.018 | citarinostat -0.006 | silmitasertib -0.082 | [5] 0.018 | [6] -0.178

FAM122B isoform 3 (UniProt Q7Z309)
inactive: [1] -0.272 | [2] 0.018 | [3] 0.147 | [4] -0.035 | entinostat -0.009 | vorinostat 0.086 | citarinostat 0.125 | silmitasertib 0.096 | [5] 0.322 | [6] -0.144

EWSR1 isoform 5 (UniProt Q01844)
inactive: [1] 0.023 | [2] 0.016 | [3] 0.065 | [4] 0.017 | entinostat -0.034 | vorinostat -0.054 | citarinostat -0.026 | silmitasertib 0.014 | [5] 0.075 | [6] -0.065

Reprinted from the listing (two entries):
FAM122B isoform 3 (UniProt Q7Z309)
inactive: [1] -0.272 | [2] 0.018 | [3] 0.147 | [4] -0.035 | entinostat -0.009 | vorinostat 0.086 | citarinostat 0.125 | silmitasertib 0.096 | [5] 0.322 | [6] -0.144

EWSR1 isoform 5 (UniProt Q01844)
inactive: [1] 0.023 | [2] 0.016 | [3] 0.065 | [4] 0.017 | entinostat -0.034 | vorinostat -0.054 | citarinostat -0.026 | silmitasertib 0.014 | [5] 0.075 | [6] -0.065

Going on with the list:

ERCC8 (UniProt Q13216)
inactive: [1] -0.012 | [2] 0.036 | [3] 0.025 | [4] -0.046 | entinostat 0 | vorinostat 0.035 | citarinostat 0.136 | silmitasertib 0.017 | [6] -0.144

FAM177A1 isoform 2 (UniProt Q8N128)
inactive: [1] 0.047 | [2] -0.053 | [3] -0.023 | [4] -0.038 | entinostat 0.007 | vorinostat 0.072 | citarinostat 0.047 | silmitasertib 0.029 | [5] -0.089 | [6] 0.002

ERLIN1 (UniProt O75477)
inactive: [1] 0.083 | [2] -0.068 | [3] -0.066 | [4] -0.043 | entinostat 0.111 | vorinostat 0.074 | citarinostat -0.01 | silmitasertib -0.009 | [5] 0.084 | [6] -0.045

FAM118A (UniProt Q9NWS6)
inactive: [1] 0.052 | [2] -0.129 | [3] -0.351 | [4] 0.015 | entinostat 0.149 | vorinostat 0.054 | citarinostat -0.289 | silmitasertib 0.166 | [5] -0.088 | [6] 0.322

FAHD2A (UniProt Q96GK7)
inactive: [1] -0.025 | [2] 0.003 | [3] 0.016 | [4] 0.009 | entinostat -0.031 | vorinostat 0.034 | citarinostat 0.034 | silmitasertib -0.016 | [5] -0.03 | [6] -0.05

ESPL1 (UniProt Q14674)
inactive: [1] -0.105 | [2] 0.092 | [3] 0.018 | [4] 0.328 | entinostat -0.04 | vorinostat -0.093 | silmitasertib -0.056 | [5] -0.27

ERCC3 (UniProt P19447)
inactive: [1] 0.068 | [2] -0.052 | [3] -0.323 | [4] -0.013 | entinostat 0.043 | vorinostat 0.073 | silmitasertib 0.133 | [5] 0.135

ERI3 (UniProt O43414)
inactive: [1] -0.102 | [2] -0.121 | [3] -0.051 | [4] -0.067 | entinostat -0.016 | vorinostat 0.018 | citarinostat 0.023 | silmitasertib -0.013 | [5] -0.052 | [6] -0.061

ETF1 (UniProt P62495)
inactive: [1] -0.009 | [2] -0.077 | [3] -0.11 | [4] -0.093 | entinostat 0.022 | vorinostat 0.023 | citarinostat 0.033 | silmitasertib 0.002 | [5] -0.068 | [6] -0.075

ERAL1 (UniProt O75616)
inactive: [1] 0.123 | [2] -0.169 | [3] 0.019 | [4] -0.056 | entinostat -0.08 | citarinostat -0.026 | silmitasertib -0.005 | [5] 0.023 | [6] -0.146

EPM2AIP1 (UniProt Q7L775)
inactive: [1] -0.044 | [2] -0.069 | [3] -0.064 | [4] -0.03 | entinostat 0.005 | vorinostat 0.009 | citarinostat 0.017 | silmitasertib 0.012 | [5] -0.069 | [6] -0.003

ERBIN isoform 8 (UniProt Q96RT1)
inactive: [1] -0.043 | [2] 0.022 | [3] -0.086 | [4] -0.055 | entinostat 0.111 | vorinostat 0.173 | citarinostat -0.007 | silmitasertib -0.037 | [5] -0.121 | [6] -0.033

EXOC7 (UniProt Q9UPT5)
inactive: [1] 0.009 | [2] -0.142 | [3] -0.223 | [4] -0.022 | entinostat 0.04 | vorinostat 0.09 | citarinostat 0.077 | silmitasertib 0.052 | [5] 0.028 | [6] -0.012

ERVK3-1, A0A0U1RQV1
inactive: [1] 0.013 | [2] 0.016 | [3] -0.019 | [4] 0.033 | entinostat 0.124 | vorinostat -0.079 | citarinostat 0.055 | silmitasertib 0.009 | [5] -0.194 | [6] -0.034

ERO1A (UniProt Q96HE7)
inactive: [1] 0 | [2] -0.037 | [3] -0.051 | [4] -0.031 | entinostat 0.013 | vorinostat -0.035 | citarinostat -0.011 | silmitasertib 0.015 | [5] -0.017 | [6] -0.021

ERCC2 (UniProt P18074)
inactive: [1] -0.015 | [2] -0.011 | [3] -0.109 | [4] 0.004 | entinostat 0.014 | vorinostat 0.045 | citarinostat 0.103 | silmitasertib -0.052 | [5] -0.092 | [6] -0.039
